According to US11382884B2, “Method for reducing lung infection” (priority 2017, dated 2022):
For at least one compound, name, drawing or mass did not settle the structure.

Key:
[1] = test system: Streptococcus pyogenes planktonic cells; experiment: Checkerboard, tetracycline with buffered CaEDTA; format: cell-based; details: FIG. 18
[2] = test system: P. aeruginosa planktonic cells and biofilms; experiment: Microplate test of antibiotics of different classes with buffered CaEDTA; format: cell-based, Pseudomonas aeruginosa; details: growth method 2; FIGS. 7-12
Procedure: Growth method 2: Overnight cultures of the relevant strain of P. aeruginosa were grown in M63 medium supplemented with glucose (0.5% w/v), casamino acids (0.2% w/v) and MgSO4 (1 mM) at 35° C. with shaking. 96-well microplates containing M63 with serial dilutions of antibiotics and adjuvants as indicated were inoculated to OD600 nm 0.01 in a final volume of 200 μl. Plates were incubated at 35° C. overnight without shaking.
Planktonic growth was monitored by OD reading or plate counting. Biofilms were quantified by staining with 40 μl of crystal violet stain (1% w/v in water) for 10 min at room temperature, washing twice with 250 μl of water, dissolving the stain in 250 μl of 50% ethanol and reading optical density at 595 nm.
Cells were grown according to method 2 and challenged with buffered CaEDTA and a series of clinically relevant antibiotics of different classes with different modes of action.

SMILES: CN(C)[C@@H]1C(O)=C(C(N)=O)C(=O)[C@@]2(O)C(O)=C3C(=O)c4c(O)cccc4[C@@](C)(O)[C@H]3C[C@@H]12 [tetracycline]
- MIC in the presence of buffered CaEDTA [1]: reduced MIC values
- sensitivity of P. aeruginosa to the antibiotic in the presence of buffered CaEDTA [2]: increases the sensitivity
